# Drug screen on melanoma cell lines: cell count

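The test systems are human melanoma cell lines, treated with two drugs together for 72 h and then stained and imaged. Values are the number of DAPI-stained nuclei as a percentage of the DMSO control: 100 is no effect, lower means fewer cells. Concentrations were fixed for each drug; these are the higher of two levels. No replicate spread is given; individual values may be noisy.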
Only some of the drugs and lines screened are listed, without regard to their results.
A dash means that no value is listed here.

Every entry is a combination with tipifarnib at 50 nM: Cn1cncc1[C@@](N)(c1ccc(Cl)cc1)c1ccc2c(c1)c(-c1cccc(Cl)c1)cc(=O)n2C

| # | Second drug | WM451Lu | C32 | COLO 792 | COLO 800 | WM3619 | COLO 829 |
|---|---|---|---|---|---|---|---|
| 1 | CCN(CC)CCNC(=O)c1c(C)[nH]c(/C=C2\C(=O)Nc3ccc(F)cc32)c1C at 2000 nM | 51.1 | 55.3 | 42.6 | 50.8 | 56.1 | 87.3 |
| 2 | COc1cc2ncnc(Nc3ccc(Oc4ccccc4)cc3)c2cc1OC at 10000 nM | 61.9 | 85.4 | 59.7 | 117 | 66.7 | 92.5 |
| 3 | Cc1cn(-c2cc(NC(=O)c3ccc(C)c(Nc4nccc(-c5cccnc5)n4)c3)cc(C(F)(F)F)c2)cn1 at 1000 nM | 69.1 | 86.1 | 90.8 | 98.0 | 103 | 101 |
| 4 | COc1ccc(COc2ccc(Cc3cnc(N)nc3N)cc2OC)cc1 at 5000 nM | 75.9 | 85.3 | 76.1 | 132 | 83.4 | 82.7 |
| 5 | CC1(C)CCC(c2ccc(Cl)cc2)=C(CN2CCN(c3ccc(C(=O)NS(=O)(=O)c4ccc(N[C@H](CCN5CCOCC5)CSc5ccccc5)c(S(=O)(=O)C(F)(F)F)c4)cc3)CC2)C1 at 2000 nM | 58.8 | 75.7 | 19.5 | 27.3 | 62.0 | 71.8 |
| 6 | COc1ccc(-c2ccc3c(N4CCOCC4)nc(N4C[C@@H](C)O[C@@H](C)C4)nc3n2)cc1CO at 100 nM | 74.3 | 84.9 | 74.0 | 78.1 | - | 80.6 |
| 7 | CN1CCN(c2ccc3nc(-c4c(N)c5c(F)cccc5[nH]c4=O)[nH]c3c2)CC1 at 500 nM | 70.2 | 65.6 | 53.6 | 54.5 | 73.2 | 59.0 |
| 8 | NC1(c2ccc(-c3nc4ccn5c(=O)[nH]nc5c4cc3-c3ccccc3)cc2)CCC1 at 2000 nM | 61.4 | 92.7 | 58.9 | 71.0 | 79.4 | 69.6 |
| 9 | Cc1ccc(Nc2nccc(N(C)c3ccc4c(C)n(C)nc4c3)n2)cc1S(N)(=O)=O at 2000 nM | 62.3 | 88.5 | 95.5 | 55.6 | 76.0 | 85.1 |
| 10 | CC(C)CCN1c2nc(Nc3cc(F)c(O)c(F)c3)ncc2N(C)C(=O)C1C (stereo not drawn) at 1000 nM | 79.1 | 111 | 78.8 | 53.6 | 43.7 | 77.6 |
| 11 | C[C@]1(c2nc3c(C(N)=O)cccc3[nH]2)CCCN1 at 7000 nM | 66.6 | 69.8 | 57.7 | 38.7 | 67.0 | 75.5 |
| 12 | CC(=O)O[C@@]12CO[C@@H]1C[C@H](O)[C@@]1(C)C(=O)[C@H](O)C3=C(C)[C@@H](OC(=O)[C@H](O)[C@@H](NC(=O)OC(C)(C)C)c4ccccc4)C[C@@](O)([C@@H](OC(=O)c4ccccc4)[C@H]21)C3(C)C at 0.5 nM | 30.5 | 69.6 | 16.3 | 14.2 | 35.3 | 48.2 |
| 13 | Nc1ncn([C@H]2C[C@H](O)[C@@H](CO)O2)c(=O)n1 at 500 nM | 84.8 | 88.9 | 106 | 112 | 84.7 | 73.3 |
| 14 | Cn1cnc2c(F)c(Nc3ccc(Br)cc3Cl)c(C(=O)NOCCO)cc21 at 75 nM | 60.8 | 90.5 | 72.6 | 64.7 | 68.8 | 106 |
| 15 | C=C(c1ccc(C(=O)O)cc1)c1cc2c(cc1C)C(C)(C)CCC2(C)C at 10000 nM | 81.1 | 91.9 | 81.6 | 90.5 | 80.7 | 91.7 |
| 16 | C#Cc1cccc(Nc2ncnc3cc(OCCOC)c(OCCOC)cc23)c1 at 4000 nM | 70.1 | 76.9 | 48.9 | 66.6 | 77.0 | 84.0 |
| 17 | Cc1nc(Nc2ncc(C(=O)Nc3c(C)cccc3Cl)s2)cc(N2CCN(CCO)CC2)n1 at 20 nM | 42.0 | 64.5 | 32.8 | 60.8 | 83.7 | 48.9 |
| 18 | Nc1nc(F)nc2c1ncn2[C@@H]1O[C@H](CO)[C@@H](O)[C@@H]1O at 1000 nM | 74.7 | 73.7 | 51.6 | 58.8 | 69.8 | 82.8 |
| 19 | O=C(CCCCCCC(=O)Nc1ccccc1)NO at 400 nM | 74.3 | 92.6 | 84.7 | 76.3 | 52.2 | 81.1 |
| 20 | Oc1nc(-c2ccc(C(F)(F)F)cc2)nc2c1CSCC2 at 10000 nM | 63.3 | 89.8 | 73.7 | 87.1 | 68.6 | 84.9 |
| 21 | N.N.[Cl][Pt][Cl] at 8000 nM | 78.2 | 90.4 | 75.2 | 75.9 | 64.2 | 78.8 |
| 22 | NC(=O)Nc1cc(-c2cccc(F)c2)sc1C(=O)N[C@H]1CCCNC1 at 100 nM | 63.6 | 67.7 | 47.9 | 71.0 | 34.5 | 80.8 |
| 23 | CC1(C)NC(=O)N(c2ccc([N+](=O)[O-])c(C(F)(F)F)c2)C1=O at 5000 nM | 66.0 | 75.8 | 77.7 | 77.6 | 67.7 | 79.7 |
| 24 | CS(=O)(=O)c1ccc(C(=O)Nc2ccc(Cl)c(-c3ccccn3)c2)c(Cl)c1 at 5000 nM | 79.0 | 105 | 70.8 | 77.8 | 91.8 | 80.2 |
| 25 | Cn1c(Nc2ccc(C(F)(F)F)cc2)nc2cc(Oc3ccnc(-c4ncc(C(F)(F)F)[nH]4)c3)ccc21 at 400 nM | 57.3 | 40.8 | 20.3 | 89.3 | 37.2 | 76.9 |
| 26 | O=C(Nc1cccc(Cl)c1)Nc1ncc(CCNc2ncnc3ccsc23)s1 at 4 nM | 34.2 | 56.7 | 39.2 | 29.2 | 65.4 | 73.6 |
| 27 | Cc1cc(Nc2cc(N3CCN(C)CC3)nc(/C=C/c3ccccc3)n2)n[nH]1 at 200 nM | 72.8 | 74.6 | 46.6 | 62.8 | 103 | 64.7 |
| 28 | COc1cc(Nc2ncc(F)c(Nc3ccc4c(n3)NC(=O)C(C)(C)O4)n2)cc(OC)c1OC at 2000 nM | 52.4 | 97.8 | 32.0 | 40.6 | 53.3 | 79.2 |
| 29 | O=c1cc(-c2cccc3c2Sc2ccccc2S3)oc(N2CCOCC2)c1 at 5000 nM | 61.8 | 87.8 | 99.3 | 122 | 78.9 | 81.6 |
| 30 | CO[C@@H]1[C@H](N(C)C(=O)c2ccccc2)C[C@H]2O[C@]1(C)n1c3ccccc3c3c4c(c5c6ccccc6n2c5c31)C(=O)NC4 at 400 nM | 69.5 | 69.0 | 47.5 | 31.9 | 69.2 | 63.2 |
| 31 | Clc1ccc(Nc2nnc(Cc3ccncc3)c3ccccc23)cc1 at 10000 nM | 67.6 | 70.1 | 53.9 | 58.8 | 68.6 | 66.4 |
| 32 | CS(=O)(=O)CCNCc1ccc(-c2ccc3ncnc(Nc4ccc(OCc5cccc(F)c5)c(Cl)c4)c3c2)o1 at 4000 nM | 61.4 | 93.4 | 81.6 | 49.2 | 90.6 | 82.4 |
| 33 | N#Cc1c(O)c2c(-c3ccc(-c4ccccc4O)cc3)csc2[nH]c1=O at 10000 nM | 81.2 | 91.9 | 90.9 | 76.1 | - | 87.1 |
| 34 | CNC(=O)c1cc(Oc2ccc(NC(=O)Nc3ccc(Cl)c(C(F)(F)F)c3)cc2)ccn1 at 2000 nM | 97.0 | 83.9 | 95.1 | 118 | 96.8 | 84.0 |
| 35 | O=C1NC(=O)/C(=C/c2ccc(-c3ccc(F)cc3O)o2)S1 at 5000 nM | 81.1 | 100 | 76.4 | 72.9 | 92.0 | 107 |
| 36 | COc1cc2c(Oc3ccc4[nH]c(C)cc4c3F)ncnc2cc1OCCCN1CCCC1 at 2000 nM | 77.4 | 84.2 | 75.6 | 50.7 | 121 | 104 |
| 37 | C/C(O)=C(\C#N)C(=O)Nc1cc(Br)ccc1Br at 10000 nM | 80.5 | 91.6 | 85.5 | 77.1 | 75.3 | 74.7 |

The first 3 entries again:

| Second drug | WM451Lu | C32 | COLO 792 | COLO 800 | WM3619 | COLO 829 |
|---|---|---|---|---|---|---|
| CCN(CC)CCNC(=O)c1c(C)[nH]c(/C=C2\C(=O)Nc3ccc(F)cc32)c1C at 2000 nM | 51.1 | 55.3 | 42.6 | 50.8 | 56.1 | 87.3 |
| COc1cc2ncnc(Nc3ccc(Oc4ccccc4)cc3)c2cc1OC at 10000 nM | 61.9 | 85.4 | 59.7 | 117 | 66.7 | 92.5 |
| Cc1cn(-c2cc(NC(=O)c3ccc(C)c(Nc4nccc(-c5cccnc5)n4)c3)cc(C(F)(F)F)c2)cn1 at 1000 nM | 69.1 | 86.1 | 90.8 | 98.0 | 103 | 101 |

Data from the primary screen of doi:10.1371/journal.pone.0140310, rounded.